Our source for the log2 fold change values is the supplement of paper PMC12819154, “High-throughput peptide-centric local stability assay extends protein–ligand identification to membrane proteins, tissues and bacteria” (Nature Structural & Molecular Biology, 2025).

The chains behind the UniProt entries cited, without tags or fusion partners. Where a name states a change or a piece, a line headed by the entry shows the natural chain unless it says otherwise.
UniProt Q5T5U3: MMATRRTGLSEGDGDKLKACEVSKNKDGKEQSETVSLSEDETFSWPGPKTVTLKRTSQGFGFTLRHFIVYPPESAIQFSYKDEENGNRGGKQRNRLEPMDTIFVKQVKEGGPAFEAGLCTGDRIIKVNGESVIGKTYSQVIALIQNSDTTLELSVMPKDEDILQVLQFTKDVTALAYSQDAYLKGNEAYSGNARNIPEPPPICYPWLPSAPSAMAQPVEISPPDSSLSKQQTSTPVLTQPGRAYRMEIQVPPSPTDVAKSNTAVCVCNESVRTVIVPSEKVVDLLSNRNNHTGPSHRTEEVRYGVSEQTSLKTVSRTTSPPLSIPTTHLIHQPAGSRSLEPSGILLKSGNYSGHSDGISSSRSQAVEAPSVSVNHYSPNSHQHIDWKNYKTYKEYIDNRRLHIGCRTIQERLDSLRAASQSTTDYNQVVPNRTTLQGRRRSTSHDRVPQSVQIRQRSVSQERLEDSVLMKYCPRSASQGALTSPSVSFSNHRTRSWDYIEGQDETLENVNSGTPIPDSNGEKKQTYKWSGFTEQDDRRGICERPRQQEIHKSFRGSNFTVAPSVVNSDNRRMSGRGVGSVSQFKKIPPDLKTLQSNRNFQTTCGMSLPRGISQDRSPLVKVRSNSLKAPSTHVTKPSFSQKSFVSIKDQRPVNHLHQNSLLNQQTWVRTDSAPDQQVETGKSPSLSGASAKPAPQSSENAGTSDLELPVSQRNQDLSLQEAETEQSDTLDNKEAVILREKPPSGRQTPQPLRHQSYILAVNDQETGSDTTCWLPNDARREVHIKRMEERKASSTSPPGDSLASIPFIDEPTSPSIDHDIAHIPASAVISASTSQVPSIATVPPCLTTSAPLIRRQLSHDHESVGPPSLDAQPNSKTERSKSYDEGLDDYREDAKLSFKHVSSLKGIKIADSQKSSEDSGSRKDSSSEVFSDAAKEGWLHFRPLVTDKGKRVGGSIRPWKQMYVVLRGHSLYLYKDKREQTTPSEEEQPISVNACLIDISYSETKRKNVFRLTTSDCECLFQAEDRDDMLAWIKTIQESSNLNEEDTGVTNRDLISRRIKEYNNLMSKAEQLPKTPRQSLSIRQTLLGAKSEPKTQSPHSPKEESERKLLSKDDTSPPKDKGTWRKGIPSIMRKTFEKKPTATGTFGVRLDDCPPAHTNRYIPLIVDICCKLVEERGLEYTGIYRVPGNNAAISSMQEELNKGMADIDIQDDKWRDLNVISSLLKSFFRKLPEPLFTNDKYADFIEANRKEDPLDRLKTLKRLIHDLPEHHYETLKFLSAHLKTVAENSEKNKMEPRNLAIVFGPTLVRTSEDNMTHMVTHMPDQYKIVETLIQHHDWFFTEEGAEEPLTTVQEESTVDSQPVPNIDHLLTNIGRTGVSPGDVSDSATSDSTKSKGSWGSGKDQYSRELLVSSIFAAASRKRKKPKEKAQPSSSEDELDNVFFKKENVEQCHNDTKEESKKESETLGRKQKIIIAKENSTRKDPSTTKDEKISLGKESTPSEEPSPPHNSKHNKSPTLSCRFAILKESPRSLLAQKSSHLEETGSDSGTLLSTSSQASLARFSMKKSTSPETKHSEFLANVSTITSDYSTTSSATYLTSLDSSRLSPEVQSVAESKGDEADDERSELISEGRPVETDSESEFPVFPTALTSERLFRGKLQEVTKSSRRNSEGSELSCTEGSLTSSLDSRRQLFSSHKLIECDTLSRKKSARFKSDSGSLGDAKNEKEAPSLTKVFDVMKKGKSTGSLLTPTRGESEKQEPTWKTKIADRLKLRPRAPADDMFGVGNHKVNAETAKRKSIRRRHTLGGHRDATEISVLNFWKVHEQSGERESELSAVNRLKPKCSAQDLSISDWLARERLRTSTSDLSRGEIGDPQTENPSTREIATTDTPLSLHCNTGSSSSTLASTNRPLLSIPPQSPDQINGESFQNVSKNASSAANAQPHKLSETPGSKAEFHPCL
UniProt Q53H82: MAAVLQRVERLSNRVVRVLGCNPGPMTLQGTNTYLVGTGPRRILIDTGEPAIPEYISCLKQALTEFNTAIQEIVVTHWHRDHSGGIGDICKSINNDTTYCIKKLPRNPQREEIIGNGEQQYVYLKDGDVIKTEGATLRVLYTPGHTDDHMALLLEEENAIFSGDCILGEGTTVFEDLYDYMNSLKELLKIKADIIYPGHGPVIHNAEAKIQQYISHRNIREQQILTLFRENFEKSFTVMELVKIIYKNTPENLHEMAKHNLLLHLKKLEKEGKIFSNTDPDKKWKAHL
UniProt Q5VSY0: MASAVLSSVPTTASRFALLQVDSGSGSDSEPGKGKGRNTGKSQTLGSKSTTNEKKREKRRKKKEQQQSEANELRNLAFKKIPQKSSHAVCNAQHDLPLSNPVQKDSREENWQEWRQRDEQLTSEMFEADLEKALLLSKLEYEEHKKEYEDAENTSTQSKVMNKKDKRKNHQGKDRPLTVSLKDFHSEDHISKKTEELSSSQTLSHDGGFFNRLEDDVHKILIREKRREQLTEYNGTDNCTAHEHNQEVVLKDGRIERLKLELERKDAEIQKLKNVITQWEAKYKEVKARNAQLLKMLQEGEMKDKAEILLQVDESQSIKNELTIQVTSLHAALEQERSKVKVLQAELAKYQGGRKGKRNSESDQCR
UniProt Q5T2D3, whole entry: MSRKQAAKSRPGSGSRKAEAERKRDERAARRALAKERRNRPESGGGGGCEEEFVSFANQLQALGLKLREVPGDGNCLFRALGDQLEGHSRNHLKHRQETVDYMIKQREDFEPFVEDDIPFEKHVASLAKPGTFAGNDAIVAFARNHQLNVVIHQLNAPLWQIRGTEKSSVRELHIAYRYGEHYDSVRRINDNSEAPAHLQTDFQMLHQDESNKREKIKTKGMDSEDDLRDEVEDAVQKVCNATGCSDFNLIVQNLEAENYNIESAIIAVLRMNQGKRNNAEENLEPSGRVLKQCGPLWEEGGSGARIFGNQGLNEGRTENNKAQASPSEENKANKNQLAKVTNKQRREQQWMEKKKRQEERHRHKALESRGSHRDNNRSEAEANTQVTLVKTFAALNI
UniProt Q5JPI3: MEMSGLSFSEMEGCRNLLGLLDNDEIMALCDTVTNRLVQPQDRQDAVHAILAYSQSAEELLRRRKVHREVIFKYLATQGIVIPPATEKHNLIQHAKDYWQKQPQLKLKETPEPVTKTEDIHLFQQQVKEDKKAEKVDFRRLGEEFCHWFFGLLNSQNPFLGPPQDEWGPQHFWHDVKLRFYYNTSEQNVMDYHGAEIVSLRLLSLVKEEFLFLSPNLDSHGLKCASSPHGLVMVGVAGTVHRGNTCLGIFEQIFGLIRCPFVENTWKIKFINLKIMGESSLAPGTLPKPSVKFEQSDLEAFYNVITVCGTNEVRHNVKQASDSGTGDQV
UniProt Q5C9Z4: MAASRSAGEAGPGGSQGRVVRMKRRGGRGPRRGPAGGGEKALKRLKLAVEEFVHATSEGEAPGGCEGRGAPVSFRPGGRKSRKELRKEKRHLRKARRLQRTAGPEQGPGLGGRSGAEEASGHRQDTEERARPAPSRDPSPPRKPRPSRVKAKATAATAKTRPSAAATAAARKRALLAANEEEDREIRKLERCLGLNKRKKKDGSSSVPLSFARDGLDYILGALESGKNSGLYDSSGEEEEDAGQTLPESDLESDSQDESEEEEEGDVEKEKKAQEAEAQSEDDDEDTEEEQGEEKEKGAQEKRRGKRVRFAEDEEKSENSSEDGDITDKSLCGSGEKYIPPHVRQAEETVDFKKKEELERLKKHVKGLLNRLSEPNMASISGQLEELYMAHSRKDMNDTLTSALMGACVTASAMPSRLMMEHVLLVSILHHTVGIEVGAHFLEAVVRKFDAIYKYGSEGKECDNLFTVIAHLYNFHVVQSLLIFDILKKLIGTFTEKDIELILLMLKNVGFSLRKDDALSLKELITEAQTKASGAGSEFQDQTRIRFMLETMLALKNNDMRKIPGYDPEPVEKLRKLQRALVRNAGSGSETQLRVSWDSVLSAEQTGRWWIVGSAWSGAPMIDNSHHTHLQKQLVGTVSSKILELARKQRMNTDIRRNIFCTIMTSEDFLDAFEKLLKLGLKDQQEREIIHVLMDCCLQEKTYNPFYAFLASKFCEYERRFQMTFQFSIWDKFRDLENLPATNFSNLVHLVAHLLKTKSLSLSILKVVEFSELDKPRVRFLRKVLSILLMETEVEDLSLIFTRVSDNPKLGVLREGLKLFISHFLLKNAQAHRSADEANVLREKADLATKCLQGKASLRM
UniProt Q3ZCX4: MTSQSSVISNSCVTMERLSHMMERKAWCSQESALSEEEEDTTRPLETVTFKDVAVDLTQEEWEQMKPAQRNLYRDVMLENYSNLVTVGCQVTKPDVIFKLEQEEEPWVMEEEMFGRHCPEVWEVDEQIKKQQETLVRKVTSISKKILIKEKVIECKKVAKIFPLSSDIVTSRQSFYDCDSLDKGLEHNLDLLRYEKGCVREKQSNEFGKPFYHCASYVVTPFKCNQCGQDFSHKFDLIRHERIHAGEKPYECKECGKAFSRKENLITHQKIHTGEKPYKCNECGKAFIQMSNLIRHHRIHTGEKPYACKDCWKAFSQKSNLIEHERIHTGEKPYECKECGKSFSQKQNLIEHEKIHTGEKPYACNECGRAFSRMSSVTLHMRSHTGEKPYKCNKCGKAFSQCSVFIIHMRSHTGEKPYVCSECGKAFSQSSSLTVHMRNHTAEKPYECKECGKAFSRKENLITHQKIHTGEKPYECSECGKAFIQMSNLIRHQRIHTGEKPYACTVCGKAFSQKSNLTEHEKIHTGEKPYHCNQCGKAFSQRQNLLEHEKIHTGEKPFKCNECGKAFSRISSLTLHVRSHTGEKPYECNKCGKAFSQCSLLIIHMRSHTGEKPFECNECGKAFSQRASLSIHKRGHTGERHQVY
UniProt Q5JR59: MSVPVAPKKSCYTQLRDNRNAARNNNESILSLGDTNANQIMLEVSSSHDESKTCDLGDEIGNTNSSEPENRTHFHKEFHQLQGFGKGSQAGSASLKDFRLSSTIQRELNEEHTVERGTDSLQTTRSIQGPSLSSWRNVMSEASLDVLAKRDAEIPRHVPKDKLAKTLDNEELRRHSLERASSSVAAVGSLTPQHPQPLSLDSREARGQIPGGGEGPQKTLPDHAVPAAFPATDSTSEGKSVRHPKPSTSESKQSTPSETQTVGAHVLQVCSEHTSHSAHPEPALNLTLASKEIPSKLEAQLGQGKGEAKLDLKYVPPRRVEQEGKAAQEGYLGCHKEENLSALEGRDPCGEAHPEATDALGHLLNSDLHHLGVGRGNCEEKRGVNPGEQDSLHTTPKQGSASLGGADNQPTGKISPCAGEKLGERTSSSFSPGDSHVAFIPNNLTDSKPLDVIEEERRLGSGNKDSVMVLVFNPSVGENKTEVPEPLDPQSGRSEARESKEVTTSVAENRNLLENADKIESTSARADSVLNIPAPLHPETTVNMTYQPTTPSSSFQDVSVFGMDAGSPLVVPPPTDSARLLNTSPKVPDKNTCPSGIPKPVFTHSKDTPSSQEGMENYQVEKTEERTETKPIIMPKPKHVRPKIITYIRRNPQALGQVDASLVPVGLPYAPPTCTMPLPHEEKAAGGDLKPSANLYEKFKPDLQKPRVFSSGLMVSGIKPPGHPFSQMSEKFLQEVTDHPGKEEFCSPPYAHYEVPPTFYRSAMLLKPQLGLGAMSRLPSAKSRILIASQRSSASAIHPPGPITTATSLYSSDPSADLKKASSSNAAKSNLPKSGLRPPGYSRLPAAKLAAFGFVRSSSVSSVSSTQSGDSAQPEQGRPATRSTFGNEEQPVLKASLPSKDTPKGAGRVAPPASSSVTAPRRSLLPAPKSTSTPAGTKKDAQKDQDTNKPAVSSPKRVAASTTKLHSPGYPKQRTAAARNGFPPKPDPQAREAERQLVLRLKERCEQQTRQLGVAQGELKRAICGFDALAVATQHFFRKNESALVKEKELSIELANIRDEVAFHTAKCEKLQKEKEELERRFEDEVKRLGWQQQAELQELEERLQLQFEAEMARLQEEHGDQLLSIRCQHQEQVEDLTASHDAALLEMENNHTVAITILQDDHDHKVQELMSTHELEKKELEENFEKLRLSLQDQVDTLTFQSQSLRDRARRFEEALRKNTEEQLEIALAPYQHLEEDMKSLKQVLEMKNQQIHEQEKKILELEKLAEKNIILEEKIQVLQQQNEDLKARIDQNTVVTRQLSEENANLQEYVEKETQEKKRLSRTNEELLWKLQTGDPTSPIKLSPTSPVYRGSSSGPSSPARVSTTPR
UniProt Q5TBB1: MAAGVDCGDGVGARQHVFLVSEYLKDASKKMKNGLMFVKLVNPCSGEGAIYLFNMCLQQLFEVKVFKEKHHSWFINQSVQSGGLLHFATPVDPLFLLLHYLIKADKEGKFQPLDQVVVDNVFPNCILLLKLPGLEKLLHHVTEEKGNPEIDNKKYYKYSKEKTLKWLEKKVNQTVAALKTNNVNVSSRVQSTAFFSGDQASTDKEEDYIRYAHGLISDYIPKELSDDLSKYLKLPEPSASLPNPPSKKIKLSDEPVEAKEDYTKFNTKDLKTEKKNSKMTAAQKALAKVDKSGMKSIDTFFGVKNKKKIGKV

Some of the results follow. Small differences around the control level are noise.

Compound in this assay: Cc1nc(Nc2ncc(C(=O)Nc3c(C)cccc3Cl)s2)cc(N2CCN(CCO)CC2)n1 [dasatinib]
Briefly: log2 fold change of tryptic peptide abundance, ligand vs vehicle (limited proteolysis) (log2 ratio); higher = more trypsin-susceptible (destabilized). Conditions: ligand concentration: 5 uM; sample: K562 cleared lysate.
As for “AASDH (peptide sequence: KLSDINQEEASGTSLHQK, peptide start residue: 647) (UniProt Q4L235)”, the log2 fold change was determined as 0.118. For the target “FAM98B (peptide sequence: GGRPNEIEPPPPEMPPWQKR, peptide start residue: 309) (UniProt Q52LJ0)”, the log2 fold change was -0.363. Consider “ARID4B (peptide sequence: KDVHEITSDTAPKPDAVLK, peptide start residue: 228) (UniProt Q4LE39)”, for which the log2 fold change was found to be 0.162.

“UniProt Q5T7B8 (peptide sequence: KKPEESAPLCSEK, peptide start residue: 660)”: the log2 fold change is -0.369. For “GPATCH4 (peptide sequence: GQDPGAPQLQSESKPPK, peptide start residue: 187) (UniProt Q5T3I0)”, the log2 fold change was -0.306. Consider “ARHGAP21 (peptide sequence: TQSPHSPKEESER, peptide start residue: 1094) (UniProt Q5T5U3)”, for which the log2 fold change was -0.194. For “UniProt Q5SVQ8 (peptide sequence: KKHSNETEFHK, peptide start residue: 409)” the value was 0.227; for “UniProt Q5T3J3 (peptide sequence: NMPIKDNALVMFNGK, peptide start residue: 349)”, 0.291; for “EARS2 (peptide sequence: DVLNPVYVER, peptide start residue: 392) (UniProt Q5JPH6)”, 0.328. In the case of “LACTB2 (peptide sequence: DHSGGIGDICK, peptide start residue: 81) (UniProt Q53H82)” it was -0.29; in that of “TBC1D10B (peptide sequence: ADGPPGPHDGGDRPSAEAR, peptide start residue: 785) (UniProt Q4KMP7)”, 0.294; in that of “PPM1J (peptide sequence: HNEDQACCEVVYVEGR, peptide start residue: 118) (UniProt Q5JR12)”, 0.27. For “UniProt Q5T089 (peptide sequence: HGPGQMLFQNGDKYDGDWVR, peptide start residue: 142)” the value was -0.179.

In the case of “TUBB8 (peptide sequence: AVLVDLEPGTMDSVR, peptide start residue: 63) (UniProt Q3ZCM7)”, the log2 fold change was -0.277. For “CPTP (peptide sequence: RAVTVAFCTLPTR, peptide start residue: 156) (UniProt Q5TA50)” the value was -0.536; for “MIA3 (peptide sequence: ELEDEVPILGR, peptide start residue: 643) (UniProt Q5JRA6)”, -0.376. For “GKAP1 (peptide sequence: EQQQSEANELR, peptide start residue: 64) (UniProt Q5VSY0)” the value was -0.308; for “UniProt Q5T2D3 (peptide sequence: IFGNQGLNEGR, peptide start residue: 307)”, -0.36; for “C3orf38 (peptide sequence: TEDIHLFQQQVK, peptide start residue: 117) (UniProt Q5JPI3)”, 0.15.

For “UniProt Q4KMZ1 (peptide sequence: DRTTGELEQEDDSCHR, peptide start residue: 235)”, the log2 fold change is -0.0832. In the case of “NOM1 (peptide sequence: SADEANVLR, peptide start residue: 834) (UniProt Q5C9Z4)”, the log2 fold change was found to be 0.0801. In the case of “ODF2 (peptide sequence: EQHCKEDSER, peptide start residue: 276) (UniProt Q5BJF6)” it was 0.472.

Regarding “CBWD5 (peptide sequence: HLTEEKPDGLINEATR, peptide start residue: 177) (UniProt Q5RIA9)”, the log2 fold change is -0.0578. For “UniProt Q3ZCX4 (peptide sequence: KENLITHQK, peptide start residue: 262)” the value was 0.125; for “UniProt Q5JR59 (peptide sequence: KNESALVKEK, peptide start residue: 1039)”, 0.136; for “HSP90AB2P (peptide sequence: YESLTDPSKLDSGK, peptide start residue: 56) (UniProt Q58FF8)”, -0.128. For the target “RNASEH2B (peptide sequence: LSDEPVEAKEDYTK, peptide start residue: 251) (UniProt Q5TBB1)”, the log2 fold change came to 0.0792. For “RPRD2 (peptide sequence: HFGQAPSK, peptide start residue: 1025) (UniProt Q5VT52)” the value was 0.567.
